From PMC3629710
Results are given in words; binding and its absence hold for the method and conditions named. Binding seen in cells or lysates may run through a third protein. Some binding calls cover weakened binding; strength is not graded here.

Amino acid sequences for entries named in this document (tags omitted). A change or cut given only in a name is not applied to a line headed by its entry. Residues count along the entry.
UniProt P00519: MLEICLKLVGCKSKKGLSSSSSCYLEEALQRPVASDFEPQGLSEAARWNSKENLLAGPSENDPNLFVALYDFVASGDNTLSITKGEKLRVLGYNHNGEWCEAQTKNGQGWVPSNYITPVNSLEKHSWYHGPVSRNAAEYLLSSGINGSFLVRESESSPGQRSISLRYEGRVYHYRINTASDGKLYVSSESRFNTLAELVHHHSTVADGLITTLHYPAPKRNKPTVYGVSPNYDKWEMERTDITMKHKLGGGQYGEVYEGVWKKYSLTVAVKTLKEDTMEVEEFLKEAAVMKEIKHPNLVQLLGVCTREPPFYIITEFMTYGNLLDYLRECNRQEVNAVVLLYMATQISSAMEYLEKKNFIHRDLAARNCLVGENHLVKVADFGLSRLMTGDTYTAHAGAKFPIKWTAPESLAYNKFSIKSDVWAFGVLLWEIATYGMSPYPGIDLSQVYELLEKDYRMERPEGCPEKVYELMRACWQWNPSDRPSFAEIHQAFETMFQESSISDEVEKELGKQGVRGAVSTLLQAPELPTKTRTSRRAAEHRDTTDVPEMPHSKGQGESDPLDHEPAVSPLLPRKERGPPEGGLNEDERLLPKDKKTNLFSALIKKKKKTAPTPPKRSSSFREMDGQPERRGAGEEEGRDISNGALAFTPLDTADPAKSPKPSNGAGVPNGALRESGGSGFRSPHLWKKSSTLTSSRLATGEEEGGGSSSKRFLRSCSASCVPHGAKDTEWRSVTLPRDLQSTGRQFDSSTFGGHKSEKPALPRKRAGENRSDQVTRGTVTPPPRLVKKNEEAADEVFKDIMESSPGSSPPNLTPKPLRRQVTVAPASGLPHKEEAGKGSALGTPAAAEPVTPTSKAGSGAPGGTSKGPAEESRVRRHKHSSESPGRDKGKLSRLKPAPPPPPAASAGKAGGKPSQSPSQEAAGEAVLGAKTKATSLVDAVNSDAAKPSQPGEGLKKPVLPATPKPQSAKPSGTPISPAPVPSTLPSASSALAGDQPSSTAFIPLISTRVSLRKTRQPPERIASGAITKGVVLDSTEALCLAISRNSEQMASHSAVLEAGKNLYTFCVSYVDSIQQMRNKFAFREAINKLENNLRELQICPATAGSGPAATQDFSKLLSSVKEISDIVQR
GST-Abl-SH3: residues 61-121 of P00519
UniProt Q16539: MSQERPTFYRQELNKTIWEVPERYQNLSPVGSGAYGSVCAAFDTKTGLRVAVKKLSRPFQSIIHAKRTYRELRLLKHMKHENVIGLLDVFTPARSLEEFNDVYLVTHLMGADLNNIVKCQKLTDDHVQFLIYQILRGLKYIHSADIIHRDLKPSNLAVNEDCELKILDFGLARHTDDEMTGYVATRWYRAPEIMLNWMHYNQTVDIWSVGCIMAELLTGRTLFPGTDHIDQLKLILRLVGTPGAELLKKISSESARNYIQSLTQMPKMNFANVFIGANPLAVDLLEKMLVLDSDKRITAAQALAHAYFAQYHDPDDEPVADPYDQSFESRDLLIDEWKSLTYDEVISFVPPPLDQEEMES
UniProt P46109: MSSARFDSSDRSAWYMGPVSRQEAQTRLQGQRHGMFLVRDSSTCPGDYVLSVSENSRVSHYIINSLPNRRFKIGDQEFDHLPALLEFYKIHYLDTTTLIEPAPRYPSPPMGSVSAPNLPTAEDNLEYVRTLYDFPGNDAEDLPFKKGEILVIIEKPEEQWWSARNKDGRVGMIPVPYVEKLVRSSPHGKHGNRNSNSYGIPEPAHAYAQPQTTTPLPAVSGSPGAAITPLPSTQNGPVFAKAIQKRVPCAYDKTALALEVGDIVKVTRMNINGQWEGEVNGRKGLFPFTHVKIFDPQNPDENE
UniProt Q8IZP0: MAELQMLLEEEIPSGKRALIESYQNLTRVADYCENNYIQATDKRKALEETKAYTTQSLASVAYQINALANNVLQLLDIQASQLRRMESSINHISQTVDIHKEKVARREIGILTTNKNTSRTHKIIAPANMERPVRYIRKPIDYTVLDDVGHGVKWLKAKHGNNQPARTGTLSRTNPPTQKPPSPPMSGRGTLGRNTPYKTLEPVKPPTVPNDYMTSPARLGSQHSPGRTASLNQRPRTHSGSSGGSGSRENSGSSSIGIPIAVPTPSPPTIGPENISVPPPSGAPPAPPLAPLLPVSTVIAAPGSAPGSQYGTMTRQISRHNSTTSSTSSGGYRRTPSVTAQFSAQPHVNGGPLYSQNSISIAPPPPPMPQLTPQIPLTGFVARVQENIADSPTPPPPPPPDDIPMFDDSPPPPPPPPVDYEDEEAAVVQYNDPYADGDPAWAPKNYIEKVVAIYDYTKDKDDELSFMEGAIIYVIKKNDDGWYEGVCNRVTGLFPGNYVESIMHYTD
UniProt Q05397: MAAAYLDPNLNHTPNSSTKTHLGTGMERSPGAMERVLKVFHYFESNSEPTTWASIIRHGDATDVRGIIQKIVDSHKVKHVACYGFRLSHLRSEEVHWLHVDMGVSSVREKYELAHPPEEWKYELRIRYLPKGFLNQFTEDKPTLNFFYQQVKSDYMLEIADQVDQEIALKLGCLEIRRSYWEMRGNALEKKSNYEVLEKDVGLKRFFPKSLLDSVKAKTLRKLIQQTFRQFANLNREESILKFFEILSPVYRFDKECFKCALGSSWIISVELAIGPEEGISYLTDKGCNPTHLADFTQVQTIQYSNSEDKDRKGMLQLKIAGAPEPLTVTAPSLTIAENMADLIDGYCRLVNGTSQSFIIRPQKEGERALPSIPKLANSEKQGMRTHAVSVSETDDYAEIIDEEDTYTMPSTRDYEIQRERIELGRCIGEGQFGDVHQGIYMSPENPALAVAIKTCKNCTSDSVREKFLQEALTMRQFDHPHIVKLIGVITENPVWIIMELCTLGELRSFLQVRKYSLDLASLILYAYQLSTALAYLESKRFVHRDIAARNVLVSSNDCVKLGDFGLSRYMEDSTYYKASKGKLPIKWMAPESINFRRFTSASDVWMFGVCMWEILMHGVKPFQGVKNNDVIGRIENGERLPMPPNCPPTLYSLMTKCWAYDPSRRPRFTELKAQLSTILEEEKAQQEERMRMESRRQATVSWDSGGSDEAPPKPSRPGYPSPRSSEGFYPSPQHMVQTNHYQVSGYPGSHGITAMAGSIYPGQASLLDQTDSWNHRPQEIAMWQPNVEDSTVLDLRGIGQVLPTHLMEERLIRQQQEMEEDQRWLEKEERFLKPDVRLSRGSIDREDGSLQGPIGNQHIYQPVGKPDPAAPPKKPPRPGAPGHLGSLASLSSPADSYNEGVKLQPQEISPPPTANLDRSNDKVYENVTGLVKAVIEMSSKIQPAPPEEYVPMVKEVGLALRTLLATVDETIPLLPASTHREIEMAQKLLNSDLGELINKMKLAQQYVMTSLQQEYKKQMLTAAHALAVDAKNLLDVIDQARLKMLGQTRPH
UniProt P49023: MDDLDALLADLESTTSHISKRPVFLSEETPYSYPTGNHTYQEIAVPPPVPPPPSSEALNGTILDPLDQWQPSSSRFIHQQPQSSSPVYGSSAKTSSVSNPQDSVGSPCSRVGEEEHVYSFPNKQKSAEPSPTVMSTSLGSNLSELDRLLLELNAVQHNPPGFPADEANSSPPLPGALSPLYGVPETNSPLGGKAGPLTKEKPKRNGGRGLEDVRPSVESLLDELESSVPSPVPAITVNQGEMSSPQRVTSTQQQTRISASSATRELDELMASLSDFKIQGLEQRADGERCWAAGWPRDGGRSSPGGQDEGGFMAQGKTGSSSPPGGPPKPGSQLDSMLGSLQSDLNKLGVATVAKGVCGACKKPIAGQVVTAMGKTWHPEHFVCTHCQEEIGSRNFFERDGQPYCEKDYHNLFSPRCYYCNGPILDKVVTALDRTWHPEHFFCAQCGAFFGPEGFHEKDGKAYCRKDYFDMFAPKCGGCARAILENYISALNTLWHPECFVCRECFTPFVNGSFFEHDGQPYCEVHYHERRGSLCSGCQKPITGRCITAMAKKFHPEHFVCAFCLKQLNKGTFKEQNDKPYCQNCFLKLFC

What was measured:
GST-Abl-SH3 = GST-Abl-SH3 (UniProt P00519); experiment: pull-down; 12 ug GST-fusion protein on glutathione-sepharose 4 fast flow beads with 1 mg K562 protein extract in lysis buffer, 2 h at 4 °C, 3 washes, immunoblot; also lysates of shAbi1-2, shCbl-1, shp130Cas-5 and shControl K562 clones; only the target purified
[1] = biological target: p38α MAPK (human (endogenous in K562)) (UniProt Q16539); experiment: co-IP; endogenous proteins immunoprecipitated from precleared K562 whole cell lysates (GammaBind G Sepharose), immunoblot; in Figures 5A and 6E cells cultured on 10 ug/ml fibronectin for 24 h; in Figure 6E shC3G or shCT clones
[2] = biological target: CrkL (human (endogenous in K562)) (UniProt P46109); experiment: as above
[3] = biological target: Abi1 (human (endogenous in K562)) (UniProt Q8IZP0); experiment: as above

binding (GST-Abl-SH3)	binding [1]	binding [2]	binding [3]	Substance
binds	–	–	–	Abi1 (from UniProt Q8IZP0 1-508)
–	binds	–	–	CrkL (from UniProt P46109 1-303)
–	binds	binds	–	FAK (from UniProt Q05397 1-1052)
–	–	–	binds	c-Abl (from UniProt P00519 1-1130)
–	binds	binds	–	paxillin (from UniProt P49023 1-591)
